Results are given in words; binding and its absence hold for the method and conditions named. In cells and extracts the contact can be indirect. Binding can be weak; no strength is given. Where a sequence is shown, tags or fusion partners need not be part of it.
Target: p85 (PI3K p85) (murine (endogenous in murine FD-Fms cells))
Assay: co-immunoprecipitation and immunoblot from M-CSF-stimulated FD-Fms(mGab3V5) cells

B1: V5-tagged murine Gab3 (mGab3V5), tyrosine phosphorylated after M-CSF stimulation (protein, UniProt Q8BSM5 1-595, looked up, not shown: small tags and cut ends)
chain: MSTGDTVCMGWLIKSPPERKLQRYAWRKRWFVLRRGRMSGNPDVLEYYRNKHSNKPIRVIDLSECTVWKHAGPGFIRKEFQKNFVFIVKTTSRTFYLVAKTEEEMQVWVHSISQVCNFSHLEDGADSMESLSHMPSSFQPSPASSLHTVHVANSALLKDDRNTNSVVTEETRRESEFLFLPDYLILSNCETGRLHHASLPTRCDSWSNSNHSLAQTSFDDVFLDGLQPFISNNLVHPLHHGKVSQDFPSIRPQASLIWNREINGPSRNLMSSSPLLESSLNPTVHVEEKQVSLPSGVKELNIMSNTPPPRPPKPSYLSEQRQDQPLLTGHSSNKKPGYTMVPRRISLSGLDHVGSWKGDVQSQSLRHRDKRLSLNLPCKFSPIYPTASPSAEDSYVPMSPKGTASELRPHCSQDDYIPMSSSMLPELPADLEPPPVNRNLKPQRKSRPPPLDSRNLSTIQEHTSLTRTYTVPCNRTSFLSPQRNGINCARLFSTPSEEEEEEEEEEEEEEEEEKYIQMEEYGTVSSLSRSALSWTKKFSLDYLALDFNSTSPAPVQKKLLLSEEQRVDYVQVDEQKTQALRSTKQEWTDERQSKV
modifications: phosphotyrosine; sites not stated
For B1, the binding was “binds”.
